# Source: publication PMC10873425
# Protein sequences, listed by entry. Tags and fused reporters are not part of them. Lines headed by an entry give the natural chain unless they say otherwise; changes in a name come on top.
# UniProt Q5U4H9: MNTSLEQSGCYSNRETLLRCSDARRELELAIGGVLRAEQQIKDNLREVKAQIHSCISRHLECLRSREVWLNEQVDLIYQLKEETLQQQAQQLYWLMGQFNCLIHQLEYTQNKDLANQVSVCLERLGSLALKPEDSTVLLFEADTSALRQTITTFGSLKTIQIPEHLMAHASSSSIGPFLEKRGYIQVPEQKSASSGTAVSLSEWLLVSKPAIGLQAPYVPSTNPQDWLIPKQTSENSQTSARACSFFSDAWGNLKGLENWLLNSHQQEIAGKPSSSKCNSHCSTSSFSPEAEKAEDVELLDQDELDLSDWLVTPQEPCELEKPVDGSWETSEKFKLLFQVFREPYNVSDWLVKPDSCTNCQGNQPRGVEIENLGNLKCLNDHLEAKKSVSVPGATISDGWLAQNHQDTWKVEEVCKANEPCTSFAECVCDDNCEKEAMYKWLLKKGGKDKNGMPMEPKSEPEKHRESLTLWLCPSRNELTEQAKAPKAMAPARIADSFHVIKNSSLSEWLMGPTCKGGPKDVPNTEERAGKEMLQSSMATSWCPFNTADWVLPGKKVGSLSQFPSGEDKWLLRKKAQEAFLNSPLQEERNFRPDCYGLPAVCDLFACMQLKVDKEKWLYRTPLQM
# UniProt P37238: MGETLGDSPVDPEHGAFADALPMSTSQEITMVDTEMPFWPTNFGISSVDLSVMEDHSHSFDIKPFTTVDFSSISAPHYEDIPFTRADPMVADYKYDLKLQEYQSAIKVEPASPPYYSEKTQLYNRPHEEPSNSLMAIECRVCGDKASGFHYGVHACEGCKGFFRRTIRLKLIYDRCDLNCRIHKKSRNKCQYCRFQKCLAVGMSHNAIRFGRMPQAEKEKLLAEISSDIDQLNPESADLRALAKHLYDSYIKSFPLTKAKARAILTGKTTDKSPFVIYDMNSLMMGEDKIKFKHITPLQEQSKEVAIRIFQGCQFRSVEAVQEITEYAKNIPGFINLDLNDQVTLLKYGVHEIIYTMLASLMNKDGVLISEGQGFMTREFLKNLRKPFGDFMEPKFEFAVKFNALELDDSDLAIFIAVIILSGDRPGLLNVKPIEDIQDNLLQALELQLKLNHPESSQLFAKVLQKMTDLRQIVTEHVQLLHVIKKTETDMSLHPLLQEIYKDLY
# No constants are given. Whether binding was seen depends on the method and setting. Binding seen in cells or lysates may run through a third protein. A result given as binding can be weak or reduced; the word gives no strength.
# Molecular target: HA-tagged ∆NCOA4^LxxAA (NCOA4 with mutant LxxLL motif) (mouse) (UniProt Q5U4H9)
# Experiment: co-IP; Flag-PPARγ and HA-NCOA4 (wild type or ∆NCOA4^LxxAA) expressed in cultured VSMCs (MOVAS); NP-40 lysate, anti-HA-tag or anti-Flag-tag, protein A/G PLUS-Agarose, 4 °C overnight, immunoblotting; with or without rosiglitazone (10 μM)
substance,measurement,value
Flag-PPARγ (peroxisome proliferator-activated receptor-γ) (from UniProt P37238 1-505),binding,binds
